Experimental data published in patent US9517222B2, “Method for the treatment of senile dementia of the Alzheimer's type” (Phenomenome Discoveries Inc., priority 2007, dated 2016).
Some values come without a unit; they compare only within their column.

What was measured:
[1] = Serum ethanolamine phospholipid ratios to PtdEt 16:0/18:0 (M01) in human cohorts
[2] = Serum ethanolamine phospholipid levels in human cohorts (dementia severity, post-mortem pathology, age) by flow-injection MS/MS
[3] = serum, females, post mortem SDAT
[4] = serum, females, post mortem control

With CC/C=C\C/C=C\C/C=C\C/C=C\C/C=C\C/C=C\CCC(=O)OC(COCCCCCCCCCCCCCCCCCC)COP(=O)(O)OCCN (centres unmarked) [Metabolite M14, Plasmanyl 18:0/22:6] the “Ratio of ethanolamine phospholipid ratios to M01 between cohorts” value (shortened to “Ratio … to M01 between cohorts”) ([1]; AD, All to CN, Male) was 0.701, the “Ratio … to M01 between cohorts” value ([1]; ADAS 5-19 to CN, Male) was 0.787 and the “Ratio … to M01 between cohorts” value ([1]; ADAS 20-39 to CN, Male) was 0.680. For the same compound, the “Ratio … to M01 between cohorts” value ([1]; ADAS 40-70 to CN, Male) was 0.576, the “Average serum ethanolamine phospholipid ratio to M01, Mean” value ([1]; Cognitive Normal, Male, serum) was 0.442 and the “Average serum ethanolamine phospholipid ratio to M01, Mean” value ([1]; SDAT, ADAS 5-19, Male, serum) was 0.348. For the same compound, the “Average serum ethanolamine phospholipid ratio to M01, Mean” value ([1]; SDAT, ADAS 20-39, Male, serum) was 0.301, the “Average serum ethanolamine phospholipid ratio to M01, Mean” value ([1]; SDAT, ADAS 40-70, Male, serum) was 0.255 and the “Average serum ethanolamine phospholipid ratio to M01, Mean” value ([1]; SDAT_all, Male, serum) was 0.310. For the same compound, the “Ethanolamine Phospholipid Ratio to M01, Mean, Age Ctl, 30-39, Female” value ([1]; human serum, females aged 30-39) was 0.379, the “Ethanolamine Phospholipid Ratio to M01, Mean, Age Ctl, 40-49, Female” value ([1]; human serum, females aged 40-49) was 0.381 and the “Ethanolamine Phospholipid Ratio to M01, Mean, Age Ctl, 50-59, Female” value ([1]; human serum, females aged 50-59) was 0.414. The “Ratio of Ethanolamine Phospholipid Ratio to M01, 50-59 vs. 40-49, Female” value ([1]; human serum, females aged 50-59 vs. females aged 40-49) was 1.088, the “Ethanolamine Phospholipid Ratio to M01, Mean, Age Ctl, 60-69, Female” value ([1]; human serum, females aged 60-69) was 0.333 and the “Ratio of Ethanolamine Phospholipid Ratio to M01, 60-69 vs. 40-49, Female” value ([1]; human serum, females aged 60-69 vs. females aged 40-49) was 0.876. For the same compound, the “Ethanolamine Phospholipid Ratio to M01, Mean, Age Ctl, 70+_Female” value ([1]; human serum, females aged 70+) was 0.412, the “Ratio of Ethanolamine Phospholipid Ratio to M01, 70+ vs. 40-49, Female” value ([1]; human serum, females aged 70+ vs. females aged 40-49) was 1.083 and the “Ratio of Ethanolamine Phospholipid Ratio to M01, 50-59 vs. 40-49, Male” value ([1]; human serum, males aged 50-59 vs. males aged 40-49) was 1.372. The “Ratio of Ethanolamine Phospholipid Ratio to M01, 60-69 vs. 40-49, Male” value ([1]; human serum, males aged 60-69 vs. males aged 40-49) was 1.306, the “Ratio of Ethanolamine Phospholipid Ratio to M01, 70+ vs. 40-49, Male” value ([1]; human serum, males aged 70+ vs. males aged 40-49) was 1.500 and the “Ratio of ethanolamine phospholipid ratio to M01, ADAS 5-19 to CN, Female” value ([1]; serum, females, ADAS 5-19 vs cognitive normal) was 0.935. For the same compound, the “Ratio of ethanolamine phospholipid ratio to M01, ADAS 20-39 to 5-19, Female” value ([1]; serum, females, ADAS 20-39 vs ADAS 5-19) was 0.844, the “Ratio of ethanolamine phospholipid ratio to M01, ADAS 20-39 to CN, Female” value ([1]; serum, females, ADAS 20-39 vs cognitive normal) was 0.789 and the “Ratio of ethanolamine phospholipid ratio to M01, ADAS 40-70 to 5-19, Female” value ([1]; serum, females, ADAS 40-70 vs ADAS 5-19) was 0.761. The “Ratio of ethanolamine phospholipid ratio to M01, ADAS 40-70 to 20-39, Female” value ([1]; serum, females, ADAS 40-70 vs ADAS 20-39) was 0.902, the “Ratio of ethanolamine phospholipid ratio to M01, ADAS 40-70 to CN, Female” value ([1]; serum, females, ADAS 40-70 vs cognitive normal) was 0.711 and the “Ethanolamine phospholipid ratio to M01, Mean, SDAT, ADAS 5-19, Female” value ([1]; serum, females, SDAT ADAS 5-19) was 0.367. For the same compound, the “Ethanolamine phospholipid ratio to M01, Mean, SDAT, ADAS 20-39, Female” value ([1]; serum, females, SDAT ADAS 20-39) was 0.309, the “Ethanolamine phospholipid ratio to M01, Mean, SDAT, ADAS 40-70, Female” value ([1]; serum, females, SDAT ADAS 40-70) was 0.279 and the “Ratio of ethanolamine phospholipid ratio to M01, AD, All to CN, Female” value ([1]; serum, females, all AD vs cognitive normal) was 0.802. The “Ethanolamine phospholipid ratio to M01, Mean, SDAT_all Female” value ([1]; serum, females, all SDAT) was 0.315, the “Ratio of ethanolamine phospholipid ratio to M01, Autopsy AD vs. Control, Female” value ([1]; serum, females, autopsy AD vs post mortem control) was 1.071 and the “Ethanolamine phospholipid ratio to M01, Mean, Cognitive Normal, Female” value ([1]; serum, females, cognitive normal) was 0.392. The “Ethanolamine phospholipid ratio to M01, Mean, Post Mortem SDAT Female” value [1, 3] was 0.155, the “Ethanolamine phospholipid ratio to M01, Mean, Post Mortem Ctl, Female” value [1, 4] was 0.144 and the “Ratio of ethanolamine phospholipid ratio to M01, ADAS 20-39 to 5-19, Male” value ([1]; serum, males, SDAT ADAS 20-39 vs ADAS 5-19) was 0.864. The “Ratio of ethanolamine phospholipid ratio to M01, ADAS 40-70 to 5-19, Male” value ([1]; serum, males, SDAT ADAS 40-70 vs ADAS 5-19) was 0.732, the “Ratio of ethanolamine phospholipid ratio to M01, ADAS 40-70 to 20-39, Male” value ([1]; serum, males, SDAT ADAS 40-70 vs ADAS 20-39) was 0.847 and the “Ethanolamine phospholipid ratio to M01, Mean, Age Ctl, 30-39, Male” value ([1]; serum, males, age control 30-39) was 0.294. For the same compound, the “Ethanolamine phospholipid ratio to M01, Mean, Age Ctl, 40-49, Male” value ([1]; serum, males, age control 40-49) was 0.242, the “Ethanolamine phospholipid ratio to M01, Mean, Age Ctl, 50-59, Male” value ([1]; serum, males, age control 50-59) was 0.332 and the “Ethanolamine phospholipid ratio to M01, Mean, Age Ctl, 60-69, Male” value ([1]; serum, males, age control 60-69) was 0.316. For the same compound, the “Ethanolamine phospholipid ratio to M01, Mean, Age Ctl, 70+_Male” value ([1]; serum, males, age control 70+) was 0.363, the “Ethanolamine phospholipid ratio to M01, Mean, Post Mortem SDAT Male” value ([1]; serum, males, post mortem SDAT) was 0.115 and the “Ratio of ethanolamine phospholipid ratio to M01, SDAT vs Control (post mortem, males)” value ([1]; serum, males, post mortem SDAT vs post mortem control) was 0.542. The “Ethanolamine phospholipid ratio to M01, Mean, Post Mortem Ctl, Male” value ([1]; serum, males, post mortem control) was 0.212, the “Ratio of serum levels” value ([2]; AD, All to CN, Male) was 0.704 and the “Ratio of serum levels” value ([2]; ADAS 5-19 to CN, Male) was 0.800. For the same compound, the “Ratio of serum levels” value ([2]; ADAS 20-39 to 5-19, Male) was 0.832, the “Ratio of serum levels” value ([2]; ADAS 20-39 to CN, Male) was 0.666 and the “Ratio of serum levels” value ([2]; ADAS 40-70 to 5-19, Male) was 0.691. For the same compound, the “Ratio of serum levels” value ([2]; ADAS 40-70 to 20-39, Male) was 0.830, the “Ratio of serum levels” value ([2]; ADAS 40-70 to CN, Male) was 0.553 and the “Serum level, Mean” value ([2]; Cognitive Normal, Female) was 0.046. For the same compound, the “Average serum level, Mean” value ([2]; Cognitive Normal, Male) was 0.051, the “Serum level, Mean” value ([2]; Post Mortem Ctl, Male) was 0.025 and the “Serum level, Mean” value ([2]; Post Mortem SDAT Male) was 0.021. The “Ratio of serum levels” value ([2]; Post mortem SDAT vs Control, Male) was 0.429, the “Serum level, Mean” value ([2]; SDAT, ADAS 5-19, Female) was 0.040 and the “Average serum level, Mean” value ([2]; SDAT, ADAS 5-19, Male) was 0.041. For the same compound, the “Serum level, Mean” value ([2]; SDAT, ADAS 20-39, Female) was 0.034, the “Average serum level, Mean” value ([2]; SDAT, ADAS 20-39, Male) was 0.034 and the “Serum level, Mean” value ([2]; SDAT, ADAS 40-70, Female) was 0.033. For the same compound, the “Average serum level, Mean” value ([2]; SDAT, ADAS 40-70, Male) was 0.028, the “Serum level, Mean” value ([2]; SDAT_all, Female) was 0.035 and the “Average serum level, Mean” value ([2]; SDAT_all, Male) was 0.036. For the same compound, the “Ratio, ADAS 5-19 to CN, Female” value ([2]; serum level ratio, females, ADAS 5-19 vs CN) was 0.869, the “Ratio, ADAS 20-39 to 5-19, Female” value ([2]; serum level ratio, females, ADAS 20-39 vs ADAS 5-19) was 0.858 and the “Ratio, ADAS 20-39 to CN, Female” value ([2]; serum level ratio, females, ADAS 20-39 vs CN) was 0.746. The “Ratio, ADAS 40-70 to 5-19, Female” value ([2]; serum level ratio, females, ADAS 40-70 vs ADAS 5-19) was 0.833, the “Ratio, ADAS 40-70 to 20-39, Female” value ([2]; serum level ratio, females, ADAS 40-70 vs ADAS 20-39) was 0.971 and the “Ratio, ADAS 40-70 to CN, Female” value ([2]; serum level ratio, females, ADAS 40-70 vs CN) was 0.724. For the same compound, the “Ratio, 50-59 vs. 40-49, Female” value ([2]; serum level ratio, females, age 50-59 vs 40-49) was 0.981, the “Ratio, 60-69 vs. 40-49, Female” value ([2]; serum level ratio, females, age 60-69 vs 40-49) was 0.953 and the “Ratio, 70+ vs. 40-49, Female” value ([2]; serum level ratio, females, age 70+ vs 40-49) was 1.149. The “Ratio, AD, All to CN, Female” value ([2]; serum level ratio, females, all AD vs cognitively normal) was 0.772, the “Ratio, Autopsy AD vs. Control, Female” value ([2]; serum level ratio, females, autopsy AD vs control) was 0.904 and the “Ratio, 50-59 vs. 40-49, Male” value ([2]; serum level ratio, males, age 50-59 vs 40-49) was 1.383. The “Ratio, 60-69 vs. 40-49, Male” value ([2]; serum level ratio, males, age 60-69 vs 40-49) was 1.536, the “Ratio, 70+ vs. 40-49, Male” value ([2]; serum level ratio, males, age 70+ vs 40-49) was 1.802 and the “Mean serum level, Age Ctl, 30-39, Female” value ([2]; serum, females, age 30-39) was 0.040. For the same compound, the “Mean serum level, Age Ctl, 40-49, Female” value ([2]; serum, females, age 40-49) was 0.043, the “Mean serum level, Age Ctl, 50-59, Female” value ([2]; serum, females, age 50-59) was 0.042 and the “Mean serum level, Age Ctl, 60-69, Female” value ([2]; serum, females, age 60-69) was 0.041. For the same compound, the “Mean serum level, Age Ctl, 70+, Female” value ([2]; serum, females, age 70+) was 0.049, the “Mean serum level, Post Mortem SDAT, Female” value [2, 3] was 0.011 and the “Mean serum level, Post Mortem Ctl, Female” value [2, 4] was 0.023. For the same compound, the “Mean serum level, Age Ctl, 30-39, Male” value ([2]; serum, males, age 30-39) was 0.034, the “Mean serum level, Age Ctl, 40-49, Male” value ([2]; serum, males, age 40-49) was 0.026 and the “Mean serum level, Age Ctl, 50-59, Male” value ([2]; serum, males, age 50-59) was 0.036. For the same compound, the “Mean serum level, Age Ctl, 60-69, Male” value ([2]; serum, males, age 60-69) was 0.040 and the “Mean serum level, Age Ctl, 70+, Male” value ([2]; serum, males, age 70+) was 0.047.
